Measured values taken from the supplement of paper PMC12067093, “Discovery and optimisation of a covalent ligand for TRIM25 and its application to targeted protein ubiquitination” (Chemical Science, 2025).
This is one part of the list.

By UniProt entry, the sequences of proteins in these tests, tags left out. Where a name states a change or a piece, a line headed by the entry shows the natural chain unless it says otherwise.
UniProt P52657, whole entry, looked up: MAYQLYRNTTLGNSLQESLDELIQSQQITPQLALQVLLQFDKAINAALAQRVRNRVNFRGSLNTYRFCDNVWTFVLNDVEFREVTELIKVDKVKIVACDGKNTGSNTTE
UniProt O00178: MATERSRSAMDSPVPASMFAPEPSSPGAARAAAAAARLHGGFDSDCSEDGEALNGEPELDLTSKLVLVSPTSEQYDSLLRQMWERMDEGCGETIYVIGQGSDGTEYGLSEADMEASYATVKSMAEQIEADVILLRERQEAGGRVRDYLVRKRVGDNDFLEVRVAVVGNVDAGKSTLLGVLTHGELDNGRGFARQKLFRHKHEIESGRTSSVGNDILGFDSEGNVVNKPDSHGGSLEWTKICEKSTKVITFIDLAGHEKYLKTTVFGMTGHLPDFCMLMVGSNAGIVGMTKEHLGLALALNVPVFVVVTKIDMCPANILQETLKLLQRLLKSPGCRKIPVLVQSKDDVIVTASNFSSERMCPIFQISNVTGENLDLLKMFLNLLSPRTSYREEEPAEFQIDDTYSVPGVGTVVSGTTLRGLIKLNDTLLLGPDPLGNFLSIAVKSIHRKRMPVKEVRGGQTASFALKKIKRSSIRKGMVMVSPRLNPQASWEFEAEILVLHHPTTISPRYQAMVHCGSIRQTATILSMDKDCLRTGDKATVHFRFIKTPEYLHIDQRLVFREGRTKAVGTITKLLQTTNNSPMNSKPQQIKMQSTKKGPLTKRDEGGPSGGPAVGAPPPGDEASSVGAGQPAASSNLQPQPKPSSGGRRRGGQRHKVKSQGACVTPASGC
UniProt P00390: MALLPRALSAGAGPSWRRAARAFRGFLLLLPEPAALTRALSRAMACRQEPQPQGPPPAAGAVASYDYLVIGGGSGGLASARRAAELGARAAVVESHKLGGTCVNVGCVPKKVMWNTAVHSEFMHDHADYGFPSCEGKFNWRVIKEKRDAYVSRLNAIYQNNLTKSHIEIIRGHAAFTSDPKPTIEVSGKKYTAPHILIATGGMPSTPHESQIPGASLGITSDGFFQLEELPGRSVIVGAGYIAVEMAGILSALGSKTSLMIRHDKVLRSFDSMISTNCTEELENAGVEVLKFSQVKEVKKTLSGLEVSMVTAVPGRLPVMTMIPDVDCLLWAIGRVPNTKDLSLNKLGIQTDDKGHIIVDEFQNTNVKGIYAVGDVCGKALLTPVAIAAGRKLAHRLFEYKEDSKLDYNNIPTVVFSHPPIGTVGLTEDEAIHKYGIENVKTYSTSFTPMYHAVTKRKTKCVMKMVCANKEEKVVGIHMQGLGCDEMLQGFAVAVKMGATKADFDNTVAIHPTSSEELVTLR
UniProt P07203, whole entry, looked up: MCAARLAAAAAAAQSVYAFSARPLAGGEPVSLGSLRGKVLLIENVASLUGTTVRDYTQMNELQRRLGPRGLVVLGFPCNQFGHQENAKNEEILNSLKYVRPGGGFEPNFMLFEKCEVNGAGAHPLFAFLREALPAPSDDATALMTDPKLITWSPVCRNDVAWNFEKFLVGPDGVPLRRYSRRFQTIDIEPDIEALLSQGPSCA
UniProt P28799: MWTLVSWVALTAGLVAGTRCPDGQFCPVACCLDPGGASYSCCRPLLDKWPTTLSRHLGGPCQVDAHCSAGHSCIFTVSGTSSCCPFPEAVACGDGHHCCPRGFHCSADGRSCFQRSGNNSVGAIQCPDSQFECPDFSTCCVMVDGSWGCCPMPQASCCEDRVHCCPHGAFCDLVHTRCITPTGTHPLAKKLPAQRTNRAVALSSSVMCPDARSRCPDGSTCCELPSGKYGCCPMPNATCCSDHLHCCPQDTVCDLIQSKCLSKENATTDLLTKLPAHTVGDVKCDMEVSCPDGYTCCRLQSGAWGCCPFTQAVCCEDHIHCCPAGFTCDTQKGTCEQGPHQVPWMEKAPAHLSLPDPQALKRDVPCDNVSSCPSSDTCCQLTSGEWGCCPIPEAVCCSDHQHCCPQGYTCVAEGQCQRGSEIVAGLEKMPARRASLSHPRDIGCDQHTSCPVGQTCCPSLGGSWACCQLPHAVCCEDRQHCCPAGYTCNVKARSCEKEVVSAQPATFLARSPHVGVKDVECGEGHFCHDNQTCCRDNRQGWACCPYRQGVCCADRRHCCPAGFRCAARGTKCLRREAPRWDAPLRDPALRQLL
UniProt Q16836: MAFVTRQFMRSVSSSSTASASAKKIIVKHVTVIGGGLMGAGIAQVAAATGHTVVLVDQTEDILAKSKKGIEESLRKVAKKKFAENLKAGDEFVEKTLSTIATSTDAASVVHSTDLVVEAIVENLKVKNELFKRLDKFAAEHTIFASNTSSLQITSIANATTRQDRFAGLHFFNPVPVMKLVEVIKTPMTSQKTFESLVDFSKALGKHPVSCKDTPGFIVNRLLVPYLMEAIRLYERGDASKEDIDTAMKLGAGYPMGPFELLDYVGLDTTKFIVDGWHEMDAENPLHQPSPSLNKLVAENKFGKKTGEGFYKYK
UniProt P78347: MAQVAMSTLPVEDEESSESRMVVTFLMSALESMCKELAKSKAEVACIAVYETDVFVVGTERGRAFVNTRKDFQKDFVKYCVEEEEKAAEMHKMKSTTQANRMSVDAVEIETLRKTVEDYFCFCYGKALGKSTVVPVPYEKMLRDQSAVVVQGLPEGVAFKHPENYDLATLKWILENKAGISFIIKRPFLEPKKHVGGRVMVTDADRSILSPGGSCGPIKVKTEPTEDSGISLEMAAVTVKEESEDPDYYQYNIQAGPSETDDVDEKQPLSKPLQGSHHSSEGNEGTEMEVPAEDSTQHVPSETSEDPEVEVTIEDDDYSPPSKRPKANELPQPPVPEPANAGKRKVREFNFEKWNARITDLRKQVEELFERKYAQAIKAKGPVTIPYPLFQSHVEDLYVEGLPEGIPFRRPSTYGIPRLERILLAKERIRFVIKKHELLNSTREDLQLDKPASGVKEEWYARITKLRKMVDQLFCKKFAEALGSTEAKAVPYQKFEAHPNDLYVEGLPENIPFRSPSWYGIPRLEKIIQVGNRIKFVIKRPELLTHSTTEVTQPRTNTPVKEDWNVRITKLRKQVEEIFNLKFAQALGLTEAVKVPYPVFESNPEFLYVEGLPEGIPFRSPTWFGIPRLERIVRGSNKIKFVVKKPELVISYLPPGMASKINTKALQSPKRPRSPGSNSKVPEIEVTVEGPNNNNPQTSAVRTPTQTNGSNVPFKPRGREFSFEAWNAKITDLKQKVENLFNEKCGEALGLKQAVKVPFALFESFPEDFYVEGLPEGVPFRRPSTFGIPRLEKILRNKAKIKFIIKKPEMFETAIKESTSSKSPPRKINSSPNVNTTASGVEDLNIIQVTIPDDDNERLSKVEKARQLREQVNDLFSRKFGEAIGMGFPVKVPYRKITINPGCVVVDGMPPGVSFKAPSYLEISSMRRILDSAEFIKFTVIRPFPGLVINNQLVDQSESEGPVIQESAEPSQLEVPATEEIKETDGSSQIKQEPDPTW
UniProt Q9BX10: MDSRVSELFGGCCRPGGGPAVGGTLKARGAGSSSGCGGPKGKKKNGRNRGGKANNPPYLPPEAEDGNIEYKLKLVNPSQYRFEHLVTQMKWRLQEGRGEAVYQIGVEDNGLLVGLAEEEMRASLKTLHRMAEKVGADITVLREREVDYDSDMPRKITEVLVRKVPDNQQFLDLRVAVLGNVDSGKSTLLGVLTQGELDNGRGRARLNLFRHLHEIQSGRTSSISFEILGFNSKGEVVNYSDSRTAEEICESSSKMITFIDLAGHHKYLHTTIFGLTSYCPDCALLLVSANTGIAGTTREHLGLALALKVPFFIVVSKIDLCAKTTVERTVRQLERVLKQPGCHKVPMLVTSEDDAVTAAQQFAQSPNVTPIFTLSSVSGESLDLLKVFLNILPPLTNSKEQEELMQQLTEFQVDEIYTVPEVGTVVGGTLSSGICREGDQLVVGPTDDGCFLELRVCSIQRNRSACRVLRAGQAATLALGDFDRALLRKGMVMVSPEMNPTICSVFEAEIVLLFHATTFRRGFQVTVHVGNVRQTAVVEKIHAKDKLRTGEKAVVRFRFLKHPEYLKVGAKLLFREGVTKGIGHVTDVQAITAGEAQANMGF
UniProt O95479: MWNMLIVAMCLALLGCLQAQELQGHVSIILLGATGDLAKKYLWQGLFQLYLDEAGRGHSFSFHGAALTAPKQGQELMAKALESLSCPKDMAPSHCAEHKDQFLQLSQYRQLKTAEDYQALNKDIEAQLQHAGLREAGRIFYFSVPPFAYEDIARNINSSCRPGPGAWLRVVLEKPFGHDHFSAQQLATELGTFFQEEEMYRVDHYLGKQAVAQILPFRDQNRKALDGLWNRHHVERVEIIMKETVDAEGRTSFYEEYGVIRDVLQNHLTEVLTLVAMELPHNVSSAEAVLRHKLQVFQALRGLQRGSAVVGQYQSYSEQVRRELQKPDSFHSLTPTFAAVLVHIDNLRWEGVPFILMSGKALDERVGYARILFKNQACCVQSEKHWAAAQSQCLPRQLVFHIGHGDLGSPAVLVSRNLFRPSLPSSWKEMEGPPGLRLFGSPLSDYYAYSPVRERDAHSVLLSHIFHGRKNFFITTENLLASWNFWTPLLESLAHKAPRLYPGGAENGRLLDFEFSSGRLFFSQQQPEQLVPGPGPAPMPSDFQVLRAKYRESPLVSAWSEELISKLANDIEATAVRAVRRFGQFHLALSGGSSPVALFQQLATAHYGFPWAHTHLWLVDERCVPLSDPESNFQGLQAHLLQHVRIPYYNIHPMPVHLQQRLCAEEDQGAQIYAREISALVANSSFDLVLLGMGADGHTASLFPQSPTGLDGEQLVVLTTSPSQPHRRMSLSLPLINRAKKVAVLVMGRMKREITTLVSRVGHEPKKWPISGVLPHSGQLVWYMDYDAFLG

Compound: CC1Cc2ccccc2N1C(=O)C1CCCN(C1)C(=O)CCl (mixture of isomers) [TRIM25 ligand 11 (diastereomer mixture)]
Experiment: probe-labelled cysteine peptide fold change vs DMSO (competition) (log2 fold change); higher = less target engagement (more negative = stronger competition)
Conditions: THP-1, incubation time: 4 h
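Further: competitive chemoproteomic profiling in live THP-1 cells with an iodoacetamide desthiobiotin (IA-DTB) probe, comparing probe-labelled peptide intensities in compound-treated cells against DMSO-treated controls.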

HAT1_O14929_376_CLRPEELTNQMNQIEISMQHEQLEESFQELVEDYRR (UniProt O14929)
probe-labelled cysteine peptide fold change (10 µM): 0.131
probe-labelled cysteine peptide fold change (50 µM): -0.111

GTF2A2_P52657_68_FCDNVWTFVLNDVEFR (UniProt P52657)
probe-labelled cysteine peptide fold change (10 µM): -0.0763
probe-labelled cysteine peptide fold change (50 µM): -0.207

GTPBP1_O00178_515_YQAMVHCGSIR (UniProt O00178)
probe-labelled cysteine peptide fold change (10 µM): -0.0472
probe-labelled cysteine peptide fold change (50 µM): 0.0726

GSR_P00390_134_KVMWNTAVHSEFMHDHADYGFPSCEGK (UniProt P00390)
probe-labelled cysteine peptide fold change (10 µM): -0.252
probe-labelled cysteine peptide fold change (50 µM): -0.112

GRPEL2_Q8TAA5_182_LTPIGDKYDPHEHELICHVPAGVGVQPGTVALVR (UniProt Q8TAA5)
probe-labelled cysteine peptide fold change (10 µM): -0.0122
probe-labelled cysteine peptide fold change (50 µM): 0.0426

GPX1_P07203_49_VLLIENVASLUGTTVR (UniProt P07203)
probe-labelled cysteine peptide fold change (10 µM): 0.026
probe-labelled cysteine peptide fold change (50 µM): 0.0876

GRN_P28799_481_QHCCPAGYTCNVK (UniProt P28799)
probe-labelled cysteine peptide fold change (10 µM): -0.0356
probe-labelled cysteine peptide fold change (50 µM): 0.144

HADH_Q16836_211_ALGKHPVSCK (UniProt Q16836)
probe-labelled cysteine peptide fold change (10 µM): -0.647
probe-labelled cysteine peptide fold change (50 µM): -0.601

HACL1_Q9UJ83_307_FIQVDICAEELGNNVKPAVTLLGNIHAVTK (UniProt Q9UJ83)
probe-labelled cysteine peptide fold change (10 µM): -0.355
probe-labelled cysteine peptide fold change (50 µM): -0.0368

GTF2I_P78347_475_KMVDQLFCK (UniProt P78347)
probe-labelled cysteine peptide fold change (10 µM): -0.349
probe-labelled cysteine peptide fold change (50 µM): -0.218

GTPBP2_Q9BX10_36_GAGSSSGCGGPK (UniProt Q9BX10)
probe-labelled cysteine peptide fold change (10 µM): -0.0968
probe-labelled cysteine peptide fold change (50 µM): -0.151

H6PD_O95479_623_CVPLSDPESNFQGLQAHLLQHVR (UniProt O95479)
probe-labelled cysteine peptide fold change (10 µM): -0.0106
probe-labelled cysteine peptide fold change (50 µM): 0.195

GSTCD_Q8NEC7_357_LLTTSTEQHPNLCEVPGVEEQSDPLFIGGPRPTMAK (UniProt Q8NEC7)
probe-labelled cysteine peptide fold change (10 µM): 0.0486
probe-labelled cysteine peptide fold change (50 µM): 0.0327
